log2 fold change data for 16 targets are collected here from the supplement of paper PMC10849652.

The chains behind the UniProt entries cited, without tags or fusion partners. Where a name states a change or a piece, a line headed by the entry shows the natural chain unless it says otherwise.
UniProt Q9BQP7: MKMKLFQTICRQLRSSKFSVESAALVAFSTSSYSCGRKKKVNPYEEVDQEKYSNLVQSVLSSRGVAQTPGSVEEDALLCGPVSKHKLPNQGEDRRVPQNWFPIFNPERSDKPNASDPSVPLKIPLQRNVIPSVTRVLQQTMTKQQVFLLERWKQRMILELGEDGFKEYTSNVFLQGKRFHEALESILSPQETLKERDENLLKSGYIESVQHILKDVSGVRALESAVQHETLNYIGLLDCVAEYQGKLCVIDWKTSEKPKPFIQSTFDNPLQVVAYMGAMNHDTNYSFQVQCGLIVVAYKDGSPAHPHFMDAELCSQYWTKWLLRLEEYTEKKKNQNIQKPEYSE
UniProt Q9UQ53: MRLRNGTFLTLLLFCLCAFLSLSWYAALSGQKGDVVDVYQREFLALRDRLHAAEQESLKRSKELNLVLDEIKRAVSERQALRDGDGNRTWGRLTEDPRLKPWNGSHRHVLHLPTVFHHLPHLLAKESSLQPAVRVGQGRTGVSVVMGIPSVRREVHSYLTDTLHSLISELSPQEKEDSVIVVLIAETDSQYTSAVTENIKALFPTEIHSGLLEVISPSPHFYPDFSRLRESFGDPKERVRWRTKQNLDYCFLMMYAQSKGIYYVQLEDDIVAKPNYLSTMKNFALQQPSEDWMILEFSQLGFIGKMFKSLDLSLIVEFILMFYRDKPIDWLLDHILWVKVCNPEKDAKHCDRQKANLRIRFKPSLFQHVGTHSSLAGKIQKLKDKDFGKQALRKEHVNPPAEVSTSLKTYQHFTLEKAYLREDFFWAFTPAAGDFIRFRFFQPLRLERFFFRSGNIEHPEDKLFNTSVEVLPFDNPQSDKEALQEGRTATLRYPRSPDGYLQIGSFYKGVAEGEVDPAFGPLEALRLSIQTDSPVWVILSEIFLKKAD
UniProt Q29983, whole entry, looked up: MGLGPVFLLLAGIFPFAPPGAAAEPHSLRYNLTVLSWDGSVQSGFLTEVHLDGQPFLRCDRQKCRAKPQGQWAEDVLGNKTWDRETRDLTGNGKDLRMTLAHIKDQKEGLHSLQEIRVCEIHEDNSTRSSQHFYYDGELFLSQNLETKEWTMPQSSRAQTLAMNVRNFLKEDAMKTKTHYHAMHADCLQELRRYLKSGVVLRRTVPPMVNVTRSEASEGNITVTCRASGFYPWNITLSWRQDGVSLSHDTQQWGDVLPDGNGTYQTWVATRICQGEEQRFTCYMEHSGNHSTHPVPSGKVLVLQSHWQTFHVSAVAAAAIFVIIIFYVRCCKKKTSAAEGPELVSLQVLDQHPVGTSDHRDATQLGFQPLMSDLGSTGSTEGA
UniProt Q96BX8: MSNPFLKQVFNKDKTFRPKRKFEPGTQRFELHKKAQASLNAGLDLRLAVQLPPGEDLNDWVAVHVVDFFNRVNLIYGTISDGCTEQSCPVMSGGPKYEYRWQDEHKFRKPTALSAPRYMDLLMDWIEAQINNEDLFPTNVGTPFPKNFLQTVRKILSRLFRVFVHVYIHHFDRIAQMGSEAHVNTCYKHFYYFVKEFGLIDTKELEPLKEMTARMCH
UniProt O75030: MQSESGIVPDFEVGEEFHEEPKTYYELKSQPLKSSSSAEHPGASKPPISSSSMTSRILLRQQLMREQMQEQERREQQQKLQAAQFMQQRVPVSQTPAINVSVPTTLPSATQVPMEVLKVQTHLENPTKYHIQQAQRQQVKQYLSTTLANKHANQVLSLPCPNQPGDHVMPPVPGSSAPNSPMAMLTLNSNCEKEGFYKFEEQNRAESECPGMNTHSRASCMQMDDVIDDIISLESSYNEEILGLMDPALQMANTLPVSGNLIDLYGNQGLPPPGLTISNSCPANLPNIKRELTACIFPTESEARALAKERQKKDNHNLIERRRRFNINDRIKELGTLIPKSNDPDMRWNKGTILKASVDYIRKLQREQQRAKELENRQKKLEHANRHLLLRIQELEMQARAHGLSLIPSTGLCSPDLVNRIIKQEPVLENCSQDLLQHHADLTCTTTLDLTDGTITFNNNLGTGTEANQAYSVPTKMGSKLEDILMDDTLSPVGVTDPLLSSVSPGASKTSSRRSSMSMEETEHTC
UniProt Q9NV56, whole entry, looked up: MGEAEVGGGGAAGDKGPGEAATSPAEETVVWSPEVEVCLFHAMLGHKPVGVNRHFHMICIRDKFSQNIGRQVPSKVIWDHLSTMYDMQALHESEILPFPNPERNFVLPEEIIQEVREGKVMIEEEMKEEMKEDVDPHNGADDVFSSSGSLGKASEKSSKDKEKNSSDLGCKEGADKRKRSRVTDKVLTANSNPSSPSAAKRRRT
UniProt Q9NP71: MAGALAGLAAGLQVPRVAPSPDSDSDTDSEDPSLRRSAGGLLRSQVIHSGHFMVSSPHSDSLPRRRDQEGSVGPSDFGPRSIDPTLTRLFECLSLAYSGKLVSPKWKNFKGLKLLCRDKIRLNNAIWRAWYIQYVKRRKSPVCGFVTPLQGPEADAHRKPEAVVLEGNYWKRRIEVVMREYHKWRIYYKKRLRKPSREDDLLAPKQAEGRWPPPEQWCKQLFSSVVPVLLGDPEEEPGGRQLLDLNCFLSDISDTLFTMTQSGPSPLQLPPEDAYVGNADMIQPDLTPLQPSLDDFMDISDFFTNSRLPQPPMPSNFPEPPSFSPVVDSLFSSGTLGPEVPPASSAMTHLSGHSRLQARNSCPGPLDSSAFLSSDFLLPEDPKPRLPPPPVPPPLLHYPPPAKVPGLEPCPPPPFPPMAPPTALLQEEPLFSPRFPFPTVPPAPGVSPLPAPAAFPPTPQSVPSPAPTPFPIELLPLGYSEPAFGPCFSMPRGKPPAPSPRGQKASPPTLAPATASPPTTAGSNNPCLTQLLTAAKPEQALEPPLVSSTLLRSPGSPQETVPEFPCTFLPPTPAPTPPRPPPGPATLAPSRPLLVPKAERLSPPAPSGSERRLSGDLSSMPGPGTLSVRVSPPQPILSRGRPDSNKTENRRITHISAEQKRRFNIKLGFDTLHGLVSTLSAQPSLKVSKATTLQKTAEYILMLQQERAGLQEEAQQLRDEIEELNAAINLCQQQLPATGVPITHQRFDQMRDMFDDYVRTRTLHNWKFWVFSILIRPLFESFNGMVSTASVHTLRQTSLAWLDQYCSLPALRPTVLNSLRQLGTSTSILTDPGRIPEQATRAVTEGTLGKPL
UniProt Q9H3L0: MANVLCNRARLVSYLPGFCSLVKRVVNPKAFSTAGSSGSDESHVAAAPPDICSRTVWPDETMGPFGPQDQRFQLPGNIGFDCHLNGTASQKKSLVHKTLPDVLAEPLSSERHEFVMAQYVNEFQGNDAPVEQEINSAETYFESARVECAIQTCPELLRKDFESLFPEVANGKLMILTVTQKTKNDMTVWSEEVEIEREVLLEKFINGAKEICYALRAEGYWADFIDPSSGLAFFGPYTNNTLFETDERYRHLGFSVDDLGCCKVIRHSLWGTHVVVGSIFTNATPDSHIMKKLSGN
UniProt P10620: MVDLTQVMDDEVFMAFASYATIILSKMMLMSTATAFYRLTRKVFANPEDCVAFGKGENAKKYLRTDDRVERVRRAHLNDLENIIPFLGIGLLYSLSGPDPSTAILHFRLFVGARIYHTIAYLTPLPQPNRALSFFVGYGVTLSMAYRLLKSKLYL
UniProt P34949: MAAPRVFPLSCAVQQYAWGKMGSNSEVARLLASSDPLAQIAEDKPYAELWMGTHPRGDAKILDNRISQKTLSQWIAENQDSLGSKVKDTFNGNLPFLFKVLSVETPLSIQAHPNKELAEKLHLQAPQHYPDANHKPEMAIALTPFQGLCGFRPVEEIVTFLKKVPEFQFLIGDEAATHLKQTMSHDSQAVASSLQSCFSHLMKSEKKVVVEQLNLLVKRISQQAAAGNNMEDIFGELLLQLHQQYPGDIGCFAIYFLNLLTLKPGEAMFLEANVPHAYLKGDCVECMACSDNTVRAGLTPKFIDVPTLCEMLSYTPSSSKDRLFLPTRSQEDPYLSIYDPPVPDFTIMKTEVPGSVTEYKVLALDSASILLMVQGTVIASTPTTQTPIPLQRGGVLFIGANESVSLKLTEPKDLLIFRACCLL
UniProt P49959: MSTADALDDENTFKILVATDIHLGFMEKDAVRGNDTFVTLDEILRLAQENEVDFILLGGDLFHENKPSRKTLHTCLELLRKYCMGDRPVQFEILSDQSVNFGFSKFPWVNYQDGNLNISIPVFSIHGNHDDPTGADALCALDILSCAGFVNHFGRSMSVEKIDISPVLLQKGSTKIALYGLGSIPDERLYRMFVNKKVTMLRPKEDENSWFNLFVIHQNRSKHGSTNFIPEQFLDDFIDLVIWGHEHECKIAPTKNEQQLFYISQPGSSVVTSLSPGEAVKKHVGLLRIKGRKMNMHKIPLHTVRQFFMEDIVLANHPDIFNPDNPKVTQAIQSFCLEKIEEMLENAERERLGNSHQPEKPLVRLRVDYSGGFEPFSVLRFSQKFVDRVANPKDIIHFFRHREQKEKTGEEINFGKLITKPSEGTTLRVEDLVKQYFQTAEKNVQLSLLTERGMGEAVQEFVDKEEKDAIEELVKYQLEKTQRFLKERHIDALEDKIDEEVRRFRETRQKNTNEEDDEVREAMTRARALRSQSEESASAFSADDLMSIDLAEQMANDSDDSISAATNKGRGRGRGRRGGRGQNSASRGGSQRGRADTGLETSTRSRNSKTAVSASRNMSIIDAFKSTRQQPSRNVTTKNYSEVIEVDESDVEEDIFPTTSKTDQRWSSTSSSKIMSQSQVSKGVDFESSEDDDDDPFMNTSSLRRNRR
UniProt P29372, whole entry, looked up: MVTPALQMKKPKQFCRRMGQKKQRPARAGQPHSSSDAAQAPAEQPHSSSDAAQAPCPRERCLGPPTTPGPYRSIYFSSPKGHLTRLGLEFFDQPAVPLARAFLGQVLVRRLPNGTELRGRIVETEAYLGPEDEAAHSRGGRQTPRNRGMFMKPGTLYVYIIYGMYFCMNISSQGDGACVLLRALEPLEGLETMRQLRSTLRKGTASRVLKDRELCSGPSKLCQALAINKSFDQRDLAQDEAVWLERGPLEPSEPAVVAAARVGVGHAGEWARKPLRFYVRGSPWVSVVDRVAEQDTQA
UniProt Q8N4C8: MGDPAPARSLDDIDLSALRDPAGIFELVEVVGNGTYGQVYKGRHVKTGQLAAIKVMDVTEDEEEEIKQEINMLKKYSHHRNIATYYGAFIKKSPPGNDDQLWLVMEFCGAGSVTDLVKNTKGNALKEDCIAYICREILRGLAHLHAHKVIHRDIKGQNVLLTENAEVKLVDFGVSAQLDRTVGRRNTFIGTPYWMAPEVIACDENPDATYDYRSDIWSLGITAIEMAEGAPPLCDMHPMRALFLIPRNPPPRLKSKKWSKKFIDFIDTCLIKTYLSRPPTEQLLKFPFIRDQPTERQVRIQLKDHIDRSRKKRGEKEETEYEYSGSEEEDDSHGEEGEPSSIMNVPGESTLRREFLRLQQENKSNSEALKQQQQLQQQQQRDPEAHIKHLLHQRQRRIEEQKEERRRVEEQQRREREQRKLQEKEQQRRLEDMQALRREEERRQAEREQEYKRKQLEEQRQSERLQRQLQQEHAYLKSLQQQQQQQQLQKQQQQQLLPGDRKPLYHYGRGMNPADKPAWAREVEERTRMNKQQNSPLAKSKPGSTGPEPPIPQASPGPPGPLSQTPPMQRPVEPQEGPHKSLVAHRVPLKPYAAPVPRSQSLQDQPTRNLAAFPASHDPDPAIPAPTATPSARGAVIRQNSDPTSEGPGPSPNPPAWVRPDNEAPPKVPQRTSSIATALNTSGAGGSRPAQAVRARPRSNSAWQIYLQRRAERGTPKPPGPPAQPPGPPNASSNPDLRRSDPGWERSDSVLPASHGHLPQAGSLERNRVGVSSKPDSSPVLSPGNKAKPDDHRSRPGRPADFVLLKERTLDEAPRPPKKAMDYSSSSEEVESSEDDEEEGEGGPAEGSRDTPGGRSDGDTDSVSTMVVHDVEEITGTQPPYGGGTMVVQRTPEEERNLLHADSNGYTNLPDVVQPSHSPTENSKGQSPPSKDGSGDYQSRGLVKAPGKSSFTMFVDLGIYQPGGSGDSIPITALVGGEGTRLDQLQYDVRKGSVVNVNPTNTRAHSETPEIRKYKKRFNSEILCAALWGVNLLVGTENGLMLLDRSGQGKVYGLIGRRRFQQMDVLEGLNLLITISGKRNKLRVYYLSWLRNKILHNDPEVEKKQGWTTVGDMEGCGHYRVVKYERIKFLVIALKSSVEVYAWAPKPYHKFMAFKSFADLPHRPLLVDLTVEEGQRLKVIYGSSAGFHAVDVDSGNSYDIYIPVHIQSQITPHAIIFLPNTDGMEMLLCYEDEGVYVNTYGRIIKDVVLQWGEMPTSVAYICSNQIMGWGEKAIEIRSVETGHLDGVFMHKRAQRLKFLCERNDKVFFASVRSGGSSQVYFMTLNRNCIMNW

Assay in all cases: log2 fold change, soluble protein after heating vs DMSO (PISA); higher = thermal stabilisation; K562 lysate, 10 uM; active = over 0.2 and 3.5 SD of the protein, either way, in both replicates (recomputed)
Compound in one experiment: CN1CC[C@H](c2c(O)cc(O)c3c(=O)cc(-c4ccccc4Cl)oc23)[C@H](O)C1 [alvocidib]
The method in brief: (§1)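 Log-two fold change in thermal stability relative to solvent controls is reported from duplicates. For each sample, crude K562 extract from dounce-homogenised pellets in PBS pH 7.4 with 1 mM MgCl2, at 1 mg/mL protein, was treated with 10 μM compound for 30 min. Aliquots heated for 3 min across 48°C-58°C were pooled, brought to 0.5% NP-40 at 4°C and cleared at 21,000xg for 90 min. The supernatant was quantified by TMTpro 16plex LC-MS/MS with channel sums equalised.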

Compound in another experiment: CN1CCc2c(c3ccccc3n2Cc2ccc(C(=O)NO)cc2)C1 [Tubastatin A]
An outline of the steps: as §1

Compound in experiment [1]: CNC(=O)C1=CC=CC=C1NC2=NC(=NC=C2Cl)NC3=C(C=C(C=C3)N4CCOCC4)OC
The method in brief: as §1

Compound in the next experiment: CNC(=O)c1ccc(Nc2ncc(C(F)(F)F)c(NCc3nccnc3N(C)S(C)(=O)=O)n2)cc1 [defactinib]
An outline of the steps: as §1

Compound in experiment [2]: CNc1nc(-c2ccc3c(N)n[nH]c3c2)cc(N2C[C@@H](C(=O)NC3CCCCC3)CC[C@H]2C)n1
An outline of the steps: as §1

Compound in a further experiment: COC(=O)N[C@@H](C)CNc1nccc(-c2cn(C(C)C)nc2-c2cc(Cl)cc(NS(C)(=O)=O)c2F)n1 [encorafenib]
An outline of the steps:
as §1

Compound in experiment [3]: COC(=O)[C@H](CCSC)NC(=O)C1=C(C=C(C=C1)NC[C@H](CS)N)C2=CC=CC=C2
The method in brief: as §1

Compound in the next experiment: COc1cc(Nc2ncc3c(n2)-c2ccc(Cl)cc2C(c2c(F)cccc2OC)=NC3)ccc1C(=O)O [alisertib]
An outline of the steps: as §1

Compound in experiment [4]: COc1cc2nc(-c3cc(F)ccc3O)nc(N[C@@H]3CNC[C@H]3C(C)(C)O)c2cc1OC
An outline of the steps:
as §1

Compound in the next experiment: COc1cc2ncnc(Nc3ccc(F)c(Cl)c3)c2cc1OCCCN1CCOCC1 [gefitinib]
The method in brief:
as §1

Some of the results follow.

As for MGME1 (UniProt Q9BQP7), the log2 fold change was inactive: -0.017 with alvocidib; inactive: 0.066 in the experiment with Tubastatin A; inactive: -0.019 in experiment [1]; inactive: -0.022 with defactinib; inactive: 0.005 in experiment [2]; inactive: -0.008 in the experiment with encorafenib. In addition, the log2 fold change in experiment [3] is inactive: -0.032; with alisertib, inactive: -0.027; in experiment [4], inactive: 0.012; with gefitinib, inactive: -0.009.
Take MGAT4B isoform 3 (UniProt Q9UQ53): the log2 fold change in the experiment with alvocidib was inactive: 0.007; with Tubastatin A, inactive: 0.092; in experiment [1], inactive: -0.004; in the experiment with defactinib, inactive: 0.088; in experiment [2], inactive: 0.024; with encorafenib, inactive: -0.001. The log2 fold change in [3] is inactive: -0.21; with alisertib it was inactive: 0.022; in [4], inactive: 0.027; with gefitinib, inactive: 0.069.
As to MIPEP (UniProt Q99797), the log2 fold change in the experiment with alvocidib is inactive: 0.027; in the experiment with Tubastatin A, inactive: 0.011; in [1] it was inactive: -0.03; with defactinib, inactive: 0.025; in experiment [2], inactive: -0.067; with encorafenib, inactive: -0.012. Further, the log2 fold change in experiment [3] is inactive: 0.154; in the experiment with alisertib, inactive: -0.038; in experiment [4], inactive: -0.009; with gefitinib, inactive: -0.007.
On to MICA (UniProt Q29983), for which the log2 fold change in the experiment with alvocidib is inactive: -0.117.
For MOB3A (UniProt Q96BX8), the log2 fold change was inactive: 0.021 with alvocidib; inactive: -0.021 in the experiment with Tubastatin A; inactive: 0.064 in [1]; inactive: -0.036 with defactinib; inactive: -0.002 in experiment [2]; inactive: 0.059 with encorafenib. The log2 fold change is inactive: -0.075 in experiment [3], inactive: -0.014 with alisertib, inactive: -0.029 in experiment [4] and inactive: 0.015 in the experiment with gefitinib.
With MRPL11 (UniProt Q9Y3B7), the log2 fold change is inactive: 0.007 with alvocidib; inactive: -0.104 in the experiment with Tubastatin A; inactive: 0.009 in experiment [1]; inactive: 0.023 with defactinib; inactive: 0.031 in experiment [2]; inactive: -0.011 with encorafenib. In addition, the log2 fold change in experiment [3] is inactive: 0.068; with alisertib it was inactive: -0.019; in experiment [4], inactive: 0.018; with gefitinib it was inactive: -0.053.
As for MITF (UniProt O75030), the log2 fold change with alvocidib is inactive: -0.008; with Tubastatin A it was inactive: -0.034; in experiment [1] it was inactive: 0; with defactinib it was inactive: -0.031; in experiment [2] it was inactive: 0.083; with encorafenib it was inactive: 0.01. Besides, the log2 fold change in experiment [3] was inactive: -0.078.
Take MRGBP (UniProt Q9NV56): the log2 fold change with alvocidib was inactive: 0.047; with Tubastatin A, inactive: 0.05; in experiment [1], inactive: -0.013; with defactinib, inactive: 0.043; in experiment [2], inactive: 0.013; in the experiment with encorafenib, inactive: 0.157. Also, the log2 fold change in experiment [3] was inactive: -0.172; with alisertib it was inactive: 0.152; in experiment [4], inactive: -0.042; with gefitinib, inactive: -0.21.
Turning to MLXIPL (UniProt Q9NP71), the log2 fold change with alvocidib is inactive: -0.086; with Tubastatin A, inactive: -0.122; in experiment [1], inactive: -0.089.
With MMADHC (UniProt Q9H3L0), the log2 fold change was inactive: 0.034 with alvocidib; inactive: -0.033 with Tubastatin A; inactive: 0.012 in experiment [1]; inactive: 0.021 with defactinib; inactive: 0.032 in experiment [2]; inactive: -0.001 with encorafenib. For the same target, the log2 fold change is inactive: 0.006 in experiment [3], inactive: -0.048 in the experiment with alisertib, inactive: -0.015 in [4] and inactive: -0.041 with gefitinib.
As to MGST1 (UniProt P10620), the log2 fold change with alvocidib was inactive: 0.033; in the experiment with Tubastatin A it was inactive: -0.011; in [1], inactive: 0.07; with defactinib it was inactive: 0.02; in experiment [2] it was inactive: 0.038; with encorafenib, inactive: 0.007. In addition, the log2 fold change in experiment [3] is inactive: 0.001; with alisertib, inactive: 0.009; in experiment [4] it was inactive: 0.023; with gefitinib, inactive: -0.066.
As for MPI (UniProt P34949), the log2 fold change was inactive: 0.051 with alvocidib; inactive: 0.024 in the experiment with Tubastatin A; inactive: -0.02 in experiment [1]; inactive: -0.007 with defactinib; inactive: 0.035 in experiment [2]; inactive: -0.01 with encorafenib. Besides, the log2 fold change in [3] is active: 0.477; with alisertib it was inactive: 0.018; in experiment [4] it was inactive: 0.01; in the experiment with gefitinib, inactive: -0.014.
With MRE11 isoform 3 (UniProt P49959), the log2 fold change with alvocidib is inactive: -0.008; with Tubastatin A, inactive: 0.02; in experiment [1], inactive: -0.007; in the experiment with defactinib, inactive: 0.019; in experiment [2], inactive: 0.039; in the experiment with encorafenib it was inactive: 0.001. Further, the log2 fold change was inactive: -0.012 in experiment [3], inactive: -0.01 with alisertib, inactive: -0.012 in experiment [4] and inactive: 0.01 with gefitinib.
On to MRPL19 (UniProt P49406), for which the log2 fold change with alvocidib is inactive: -0.056; with Tubastatin A, inactive: -0.119; in experiment [1], inactive: -0.036; with defactinib it was inactive: -0.005; in experiment [2], inactive: -0.052; with encorafenib it was inactive: -0.003. For the same target, the log2 fold change in experiment [3] was inactive: 0.042; with alisertib, inactive: 0.037; in experiment [4] it was inactive: -0.03; in the experiment with gefitinib, inactive: 0.043.
With MPG (UniProt P29372), the log2 fold change in the experiment with alvocidib was inactive: -0.021; with Tubastatin A, inactive: -0.063; in [1] it was inactive: -0.017; with defactinib it was inactive: -0.008; in experiment [2], inactive: 0.072; in the experiment with encorafenib it was inactive: -0.014. For the same target, the log2 fold change in [3] was inactive: 0.075; with alisertib, inactive: -0.048; in [4], inactive: 0.023; with gefitinib it was inactive: 0.014.
MINK1 (UniProt Q8N4C8): the log2 fold change with alvocidib is inactive: -0.049; with Tubastatin A it was inactive: -0.137; in experiment [1], inactive: 0.055; with defactinib, inactive: 0.025; in [2] it was inactive: 0.109; in the experiment with encorafenib it was inactive: -0.133. For the same target, the figures for the log2 fold change (in [3]; with alisertib; in experiment [4]) were inactive: 0.022, inactive: 0.051 and inactive: -0.003, respectively.
